Inconclusive results, whose numbers are uncertain, are shown. Potencies beside an inconclusive call are fits to weak or partial responses and may not hold up.
Experiment: Quantitative High-Throughput drug screen in 47 multiple myeloma cell lines against the NCATS MIPE library collection: Karpas417_ECACC cell viability assay (AID 1918961)
Settings: Karpas417 myeloma viability, CellTiter-Glo ATP luminescence, 48 h; series mostly up to 45.8 µM; active = well fitted cell-killing curve with a large enough effect; inconclusive = small, poorly fitted or top-dose-only effect, or effect the other way; inactive = no such curve, though single readings can be large or run the other way
Method in brief: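 Myeloma cell lines, 500 cells per well, exposed to MIPE 4.0 library compounds for 48 h at 37C, 5% CO2. Viability from ATP by CellTiter-Glo luminescence; normalised to DMSO (100%) and media-only (0%) wells.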
Potency is the fitted concentration of half-maximal effect.

Row | SMILES | Potency
1 | O=[N+]([O-])c1cn2c(n1)OC[C@@H](OCc1ccc(OC(F)(F)F)cc1)C2 | inconclusive: 0.0105 µM [rising, full curve, poor fit]
2 | NC(=NCc1ccccc1)NC(=O)c1nc(Cl)c(N)nc1N | inconclusive: 20.9 µM [cytotoxic, partial curve, poor fit]
3 | Fc1ccc(C(c2ccc(F)cc2)N2CCN(CC=Cc3ccccc3)CC2)cc1 | inconclusive: 2.96 µM [rising, full curve, poor fit]

— PubChem BioAssay (NCATS)
